# Results as given in US20090186811A1 (priority 2004, published 2009).
# Assay: general procedure: Fmoc solid-phase peptide synthesis; PAL Peg-PS resin (amide resin); HCTU
# Conditions: whole synthesis, 215 nm
Substance,purity (crude or final not stated) [%],also measured
"Fluorescein-[Cys2,N-{(Ala-Arg-Arg-Arg-Ala-Ala-Arg-Ala)3}-Lys13,D-Cys27]PYY",,purity (crude or final not stated) (one disulfide bridge): 60.0%
Lys-Lys-Lys-Lys-Lys-Lys-PYY25-36,91.9,
"[Cys2,D-Cys27]PYY",98.3,
"[Cys2,D-Cys27]PYY2-36",90.0,
"[Cys2,Ile3,D-Cys27,Val31]NPY",97.8,
"[Cys2,N-(8-(8-gammaglutamoylamino-octanoylamino)-octanoyl)-Lys13,D-Cys27]PYY",90.0,
"[Cys2,N-{N′-(21-amino-4,7,10,13,16,19-hexaoxaheneicosanoyl)}-gammaglutamoyl-Lys13,D-Cys27]PYY",,"purity (crude or final not stated) (HPLC, Vydac C18 Peptide-Protein column, 0.05% TFA water/MeCN): 85.0%"
[D-Ala1]PYY,95.2,
